Assay results reported in article PMC4912613, “A broad analysis of resistance development in the malaria parasite” (Nature Communications, 2016).

How the values were obtained:
Format in all cases: cell-based, Plasmodium falciparum
[1] = system: ATQ-R4 (cytb M133I and L144S, parent 3D7); assay: Cross-resistance EC50 assay, ATQ-R4; settings: SYBR green 72 hour assay, asynchronized parasites, 96-well or 1536-well format
Excerpt: (§1) To evaluate potential overlapping activity against known antimalarial drug targets, we performed dose-response studies with each compound against our assembled set of drug-resistant lines and their corresponding parents, in an asexual blood stage proliferation assay (Table 1). Comparisons were made to the drug-sensitive strain 3D7 when a parent was unavailable (TM90C2A, W2 and Dd2). As laboratories conducted EC50 assays with different strains and protocols, all comparisons were made between assays from the same laboratory and under the same assay conditions. Compounds displaying >5-fold EC50 shifts relative to the parent or sensitive strain were flagged as having potentially non-novel targets. Average fold shifts per strain ranged from 0.82 to 2.34, with a median of 1.23 indicating there was not common resistance to any one resistant clone. No resistance patterns were observed when classifying the compounds based on chemical structure, but this was not surprising given the diversity of compounds chosen. On the other hand, given that these confirmed compounds were derived from larger unconfirmed hit lists to which some filtration criteria may have been applied (for example, elimination of obvious dihydrofolate reductase inhibitors[32]), some[10][11][12][13] pre-existing bias may exist in the set. […]
(§2) Alternatively, a SYBR Green-based proliferation approach was used for the 72-h assay, as previously described. Briefly, a culture of either synchronized or asynchronous parasitized RBCs (0.3% parasitemia and 4% haematocrit) in screening medium (identical to supplemented medium above except no serum was added) was exposed to serial drug dilutions. Plates were incubated at 37 °C and gassed with 93% N2, 4% CO2 and 3% O2 for 72 h. Following incubation, 10 × SYBR Green I (Invitrogen; supplied in 10,000 × concentration) in lysis buffer ([…], 5 mM EDTA, 0.16% Saponin wt per vol and 1.6% Triton X vol per vol) was added to the wells and the plates were incubated overnight at room temperature before plate reading. EC50 assays were repeated three times, taking the average EC50 value from each assay set, and removing any outliers using a single iteration of Grubbs' test, eliminating values with z-scores above the critical z-value (α=0.05). The raw EC50 values for synchronized parasites assayed in a 384-well format are listed in Supplementary Data 4. The raw EC50 values for asynchronous parasites assayed in a 96 or 1536-well format are listed in Supplementary Data 5.
(§3) EC50 values for each strain were compared with those of the corresponding parent strain to determine fold-shift changes and identify resistance. To minimize the cause variance between assays, all comparisons were conducted between strains assayed under identical conditions. A one-way ANOVA followed by a Dunnet's post-test was conducted in GraphPad Prism to identify significant changes between the parent and resistant strain.

[2] = system: NITD609-R2 (PfATP4 T418N and P990R, parent Dd2); assay: Cross-resistance EC50 assay, NITD609-R2; settings: SYBR green 72 hour assay, asynchronized parasites, 96-well or 1536-well format
Excerpt: as §1, §2, §3

[3] = system: PfATP4-Mut2 (PfATP4 P412L, parent W2); assay: Cross-resistance EC50 assay, PfATP4-Mut2; settings: hypoxanthine 48-hour assay; synchronized parasites; 96-well format; strain PfATP4 Mut2
Excerpt: To evaluate potential overlapping activity against known antimalarial drug targets, we performed dose-response studies with each compound against our assembled set of drug-resistant lines and their corresponding parents, in an asexual blood stage proliferation assay (Table 1). Comparisons were made to the drug-sensitive strain 3D7 when a parent was unavailable (TM90C2A, W2 and Dd2). As laboratories conducted EC50 assays with different strains and protocols, all comparisons were made between assays from the same laboratory and under the same assay conditions. Compounds displaying >5-fold EC50 shifts relative to the parent or sensitive strain were flagged as having potentially non-novel targets. Average fold shifts per strain ranged from 0.82 to 2.34, with a median of 1.23 indicating there was not common resistance to any one resistant clone. No resistance patterns were observed when classifying the compounds based on chemical structure, but this was not surprising given the diversity of compounds chosen. On the other hand, given that these confirmed compounds were derived from larger unconfirmed hit lists to which some filtration criteria may have been applied (for example, elimination of obvious dihydrofolate reductase inhibitors[32]), some[10][11][12][13] pre-existing bias may exist in the set.
The 48-h assay was carried out in a 96-well format following standard methods using the ^3H-hypoxanthine incorporation assay. The raw EC50 values corresponding to this assay can be found in Supplementary Data 3. Briefly, this assay relies on the parasite incorporation of labelled hypoxanthine that is proportional to P. falciparum growth. A culture of parasitized RBCs (0.5% parasitemia with a percentage of ring stage higher than 70% of total parasitemia, 2.0% haematocrit) in RPMI-1640, […] and 5 μM hypoxanthine was exposed to drug serial dilutions. Plates were incubated for 24 h at 37 °C, 5% CO2, 5% O2 and 90% N2. After 24 h of incubation, ^3H-hypoxanthine was added and plates were incubated for an additional 24-h period. After that, parasites were harvested on a glass fibre filter using a TOMTEC Cell Harvester 96. Filters were dried and melt-on scintillator sheets were used to determine the incorporation of ^3H-hypoxanthine. Radioactivity was measured using a microbeta counter. Data were normalized using the incorporation of the positive (parasitized RBCs without drug) and negative (same culture with artesunate at 2 μM) controls. All assays were conducted in triplicate using three independently grown cultures, and EC50 values were determined using the XLfit add-in module for Excel (version 2.3.1) from Grafit (version 5.3.1.3), where parameter h is the assay hill slope, x is the compound concentration and y is the inhibition of growth effect. The XLfit equation is: […]
as §2, with “5. […]” for “5.”

[4] = system: ProRS (prolyl t-RNA synthetase L482H, parent Dd2); assay: Cross-resistance EC50 assay, ProRS; settings: SYBR green 72 hour assay, synchronized parasites, 384-well format
Excerpt: as §1, §2, §3

Row | Structure (SMILES) | ATQ-R4 (3D7 Parent) Average Hill Slope [1] | NITD609-R2 (Dd2 Parent) Average Hill Slope [2] | PfATP4 Mut2 (W2F6 Parent) Average Hill Slope [3] | ProRS (Dd2 Parent) Average Hill Slope ([4]; strain ProRS (Dd2 parent)) | ProRS (Dd2 Parent) Average Hill Slope ([4]; ProRS strain)
1 | CN1CCN(c2ccc(Nc3c4ccccc4nc4ccccc34)cc2)CC1 [MMV006172] | 3.48 | 2.88 | 2.00 | 3.28 | 
2 | O=C(Nc1ccc(Cl)c(Cl)c1)Nc1ccc(Cl)c(Cl)c1 [MMV665852] | 4.11 | 2.37 | 2.29 | 2.42 | 
3 | CCCCCCCN(Cc1ccc(OC(C)(C)C(=O)OCC)cc1)C(=O)Nc1ccc(Cl)cc1OCC [MMV021735] | 1.36 | 1.84 | 1.73 | 3.69 | 
4 | O=C(Nc1ccccc1O)c1ccc(Oc2cccc(C(=O)Nc3ccccc3O)c2)cc1 [MMV665888] | 1.49 | 1.66 | 1.19 | 1.75 | 
5 | c1cc(-c2cnc3ccc(-c4ccc(N5CCOCC5)cc4)nn23)ccn1 [MMV668311] | 2.15 | 1.30 | 1.49 | 8.22 | 
6 | COc1ccc2c3c([nH]c2c1)[C@H](CO)N(C(C)=O)CC31CCN(C(=O)Nc2ccccc2F)CC1 [MMV673482] | 1.50 | 0.98 | 1.43 |  | 2.21
7 | Nc1ccc(-c2nc3cc(Cc4ccc5[nH]c(-c6ccc(N)cc6)nc5c4)ccc3[nH]2)cc1 [MMV665943] | 4.44 | 2.80 | 1.26 | 4.29 | 
8 | CCOc1cc2c(cc1OCC)C(c1cc(Cl)ccc1O)NCC2 (stereo not drawn) [MMV000478] | 1.43 | 1.92 | 1.18 | 1.56 | 
9 | CNCc1ccc2nc(-c3coc(Cc4cc(Cl)ccc4OCC(C)C)n3)[nH]c2c1.Cl.Cl [MMV026596] | 2.30 | 1.43 | 0.71 | 4.25 | 
10 | Cl.c1ccc2c(NCCCCCCNc3c4c(nc5ccccc35)CCCC4)c3c(nc2c1)CCCC3 [MMV019555] | 3.13 | 1.75 | 1.70 | 3.74 | 
11 | O=C(NC(c1ccccc1)c1ccc2cccnc2c1O)c1ccccc1 (stereo not drawn) [MMV666080] | 1.95 | 1.88 | 2.94 | 2.53 | 
12 | CN(C)S(=O)(=O)c1cc(-c2ccc3nccc(-c4cccc(S(N)(=O)=O)c4)c3c2)cnc1N [MMV024038] | 2.60 | 1.68 | 0.76 | 2.25 | 
13 | Cc1nc2ccc3ccc(CNc4ccc(C(=O)CC(CCC(=O)O)C(=O)O)cc4)cc3c2c(=O)[nH]1.Cl (stereo not drawn) [MMV027634] | 1.75 | 1.70 | 0.87 | 4.78 | 
14 | CCN(CC)CCn1c(=N)n(CC(O)c2ccc(Cl)c(Cl)c2)c2ccccc21.Cl (stereo not drawn) [MMV000248] | 1.59 | 1.18 | 1.83 | 6.24 | 
15 | Brc1ccc(Nc2nc3ccccc3nc2Nc2ccc(Br)cc2)cc1 [MMV007224] | 7.05 | 7.45 | 1.37 | 5.37 | 
16 | c1cncc(-c2cc(N3CCC(CN4CCOCC4)CC3)nc(-c3ccncc3)n2)c1 [MMV668399] | 2.20 | 1.19 | 1.74 | 3.02 | 
17 | COc1ccc(N2CCN(C(CNC(=O)C3CCCCC3)c3ccc4c(c3)OCO4)CC2)cc1 (stereo not drawn) [MMV019662] | 1.54 | 1.64 | 1.12 | 2.55 | 
18 | OC(CNC1CCCCC1)Cn1c2ccc(I)cc2c2cc(I)ccc21 (stereo not drawn) [MMV665882] | 1.49 | 1.59 | 0.61 | 1.98 | 
19 | CCC(C)NCC(O)(c1ccc(Cl)cc1)c1ccc(Cl)cc1 (stereo not drawn) [MMV665928] | 1.34 | 1.12 | 1.92 | 1.57 | 
20 | CCCN(CCC)CC(O)COc1ccccc1C(=O)Nc1ccccc1 (stereo not drawn) [MMV006455] | 2.29 | 0.92 | 1.93 | 1.29 | 
21 | FC(F)(F)c1cccc(Nc2nc3ccccc3nc2Nc2cccc(C(F)(F)F)c2)c1 [MMV665794] | 4.90 | 4.60 | 2.37 | 4.25 | 
